Results published in the M2OR odorant receptor database.
Substitutions are numbered along the chain they refer to. The list shows a part of the results, in another mix than the full data. The calls were merged from several studies; some rest on single wells. The list shows a part of the results. Some of the results follow.

Chains of the proteins cited; added tags and fusions are not shown. A line that says so, or that is headed by a name, gives the form on record, which may keep a tag or linker.
OR2W1, as listed by the source: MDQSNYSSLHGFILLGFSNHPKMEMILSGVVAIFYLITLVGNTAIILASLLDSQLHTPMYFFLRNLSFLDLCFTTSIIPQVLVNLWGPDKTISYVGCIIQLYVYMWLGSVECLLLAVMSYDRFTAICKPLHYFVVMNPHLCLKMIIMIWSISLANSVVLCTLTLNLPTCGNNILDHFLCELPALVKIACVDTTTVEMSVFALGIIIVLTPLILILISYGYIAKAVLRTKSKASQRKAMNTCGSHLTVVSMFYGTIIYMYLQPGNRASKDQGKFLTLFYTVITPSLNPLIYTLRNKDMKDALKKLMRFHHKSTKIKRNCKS

Assays:
Details in all cases: stereoisomer not certain
OR2W1 [1] = test system: T1, OR2W1
T1 sequence (whole entry): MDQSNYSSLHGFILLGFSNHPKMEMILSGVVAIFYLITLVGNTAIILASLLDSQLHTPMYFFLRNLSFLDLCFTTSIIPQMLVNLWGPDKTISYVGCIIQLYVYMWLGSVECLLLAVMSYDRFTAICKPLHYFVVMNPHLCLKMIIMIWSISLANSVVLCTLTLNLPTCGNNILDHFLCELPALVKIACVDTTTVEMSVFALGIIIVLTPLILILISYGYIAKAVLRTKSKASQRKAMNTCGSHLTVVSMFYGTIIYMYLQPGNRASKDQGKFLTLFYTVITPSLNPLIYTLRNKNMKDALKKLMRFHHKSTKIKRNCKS
How it was run: (§1)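 Each receptor–molecule pair is labelled responsive or non-responsive (inactive) according to whether the original authors judged the measured signal statistically different from baseline. The data were taken from the main text and supplementary material of published papers and checked for typos and inconsistencies. Assay methods differed by source, with transient luciferase assays in mammalian cell lines being common.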

OR2W3 = test system: T2, OR2W3
T2 sequence (whole entry): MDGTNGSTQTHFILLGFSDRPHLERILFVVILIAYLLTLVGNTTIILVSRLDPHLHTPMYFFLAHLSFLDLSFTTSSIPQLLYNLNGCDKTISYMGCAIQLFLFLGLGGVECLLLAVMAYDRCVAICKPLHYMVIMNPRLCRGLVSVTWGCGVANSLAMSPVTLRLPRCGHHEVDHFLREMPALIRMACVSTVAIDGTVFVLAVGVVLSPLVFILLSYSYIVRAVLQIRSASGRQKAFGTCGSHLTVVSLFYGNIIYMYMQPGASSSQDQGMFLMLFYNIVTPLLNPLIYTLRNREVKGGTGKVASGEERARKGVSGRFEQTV
How it was run: as §1

OR2W5P (Homo sapiens) = molecular target: T3, OR2W5P (Homo sapiens) (UniProt A6NFC9)
T3 sequence (whole entry): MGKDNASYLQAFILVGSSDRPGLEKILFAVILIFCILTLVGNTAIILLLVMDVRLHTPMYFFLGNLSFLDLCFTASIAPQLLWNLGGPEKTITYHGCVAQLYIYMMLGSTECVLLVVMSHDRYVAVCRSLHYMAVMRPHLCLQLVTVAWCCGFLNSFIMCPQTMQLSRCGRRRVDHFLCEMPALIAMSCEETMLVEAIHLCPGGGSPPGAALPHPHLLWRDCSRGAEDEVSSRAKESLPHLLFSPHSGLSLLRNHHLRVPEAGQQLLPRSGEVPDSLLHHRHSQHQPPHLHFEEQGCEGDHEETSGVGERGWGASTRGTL
How it was run: as §1

OR2Y1 = test system: T4, OR2Y1
T4 sequence (whole entry): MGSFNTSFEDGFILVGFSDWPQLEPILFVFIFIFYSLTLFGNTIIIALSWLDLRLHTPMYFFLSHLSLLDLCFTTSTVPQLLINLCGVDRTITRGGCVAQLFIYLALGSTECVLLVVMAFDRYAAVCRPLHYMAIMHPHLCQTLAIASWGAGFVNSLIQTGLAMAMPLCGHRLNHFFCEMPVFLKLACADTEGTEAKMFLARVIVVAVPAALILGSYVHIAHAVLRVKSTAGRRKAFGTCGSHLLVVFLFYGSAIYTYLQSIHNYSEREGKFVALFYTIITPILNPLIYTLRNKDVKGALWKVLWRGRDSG
How it was run: as §1

OR2Z1 (Homo sapiens) = molecular target: T5, OR2Z1 (Homo sapiens) (UniProt Q8NG97)
T5 sequence (whole entry): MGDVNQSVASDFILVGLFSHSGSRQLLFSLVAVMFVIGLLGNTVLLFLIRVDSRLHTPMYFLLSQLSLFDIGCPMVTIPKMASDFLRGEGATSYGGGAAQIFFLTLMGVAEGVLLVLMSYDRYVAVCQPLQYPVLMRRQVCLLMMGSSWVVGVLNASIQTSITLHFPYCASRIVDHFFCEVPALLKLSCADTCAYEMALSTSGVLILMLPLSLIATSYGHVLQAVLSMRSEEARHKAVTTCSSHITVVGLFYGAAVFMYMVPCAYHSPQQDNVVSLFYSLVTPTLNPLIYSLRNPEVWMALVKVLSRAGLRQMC
How it was run: as §1

OR3A1 (Homo sapiens) = molecular target: T6, OR3A1 (Homo sapiens) (UniProt P47881)
T6 sequence (whole entry): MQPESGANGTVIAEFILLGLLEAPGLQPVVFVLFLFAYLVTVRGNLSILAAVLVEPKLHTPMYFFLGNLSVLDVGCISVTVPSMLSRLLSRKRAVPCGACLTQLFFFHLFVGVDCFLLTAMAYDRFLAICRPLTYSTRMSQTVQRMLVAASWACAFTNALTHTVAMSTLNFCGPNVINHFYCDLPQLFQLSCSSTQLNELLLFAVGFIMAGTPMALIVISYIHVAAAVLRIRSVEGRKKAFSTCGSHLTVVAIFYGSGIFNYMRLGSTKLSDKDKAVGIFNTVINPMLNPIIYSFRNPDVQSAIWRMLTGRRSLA
How it was run: as §1

OR3A2 (Homo sapiens) = molecular target: T7, OR3A2 (Homo sapiens) (UniProt P47893)
T7 sequence (whole entry): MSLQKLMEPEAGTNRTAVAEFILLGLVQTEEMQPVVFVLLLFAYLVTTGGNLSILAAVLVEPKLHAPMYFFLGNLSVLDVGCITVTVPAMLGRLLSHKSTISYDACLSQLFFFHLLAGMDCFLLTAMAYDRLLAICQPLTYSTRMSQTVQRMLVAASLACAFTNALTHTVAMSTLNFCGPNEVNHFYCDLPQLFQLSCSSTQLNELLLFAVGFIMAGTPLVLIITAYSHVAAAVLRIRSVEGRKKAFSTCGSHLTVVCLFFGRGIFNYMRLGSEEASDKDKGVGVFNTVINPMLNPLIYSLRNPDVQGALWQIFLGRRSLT
How it was run: as §1

OR2W3 (Homo sapiens) = molecular target: T8, OR2W3 (Homo sapiens) (UniProt Q7Z3T1)
T8 sequence (whole entry): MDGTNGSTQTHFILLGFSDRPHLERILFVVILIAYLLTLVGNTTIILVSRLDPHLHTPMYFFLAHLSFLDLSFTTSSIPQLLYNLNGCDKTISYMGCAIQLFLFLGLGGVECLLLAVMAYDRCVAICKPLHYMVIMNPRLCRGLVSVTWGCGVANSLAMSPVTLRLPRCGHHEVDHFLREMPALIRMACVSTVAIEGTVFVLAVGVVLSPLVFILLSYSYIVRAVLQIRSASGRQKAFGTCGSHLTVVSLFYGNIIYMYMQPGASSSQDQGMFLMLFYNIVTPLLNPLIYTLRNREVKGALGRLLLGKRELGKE
How it was run: as §1

OR2Y1 (Homo sapiens) = OR2Y1 (Homo sapiens) (UniProt Q8NGV0)
How it was run: as §1

OR2W1 [2] = test system: T9, OR2W1; remark: listed apart in the source
T9 sequence (whole entry): T1 sequence (whole entry) with M81V, N296D
How it was run: as §1

Measured: odorant receptor agonist call

O=C1CCCCCCCCCCCCCCO1
inactive: OR2W1 [1] | OR2W3 | OR2W5P (Homo sapiens) | OR2Y1 | OR2Z1 (Homo sapiens) | OR3A1 (Homo sapiens) | OR3A2 (Homo sapiens)

CC12C=CCC1C1CCC3CC(=O)CCC3(C)C1CC2 (centres undefined)
inactive: OR2W1 [1] | OR2W3 (Homo sapiens) | OR2W3 | OR2W5P (Homo sapiens) | OR2Y1 (Homo sapiens) | OR2Y1 | OR2Z1 (Homo sapiens) | OR3A1 (Homo sapiens) | OR3A2 (Homo sapiens)

CC(C)C(=O)O
inactive: OR2W1 [1] | OR2W3 | OR2W5P (Homo sapiens) | OR2Y1 | OR2Z1 (Homo sapiens) | OR3A1 (Homo sapiens) | OR3A2 (Homo sapiens)

CC1CCC(C(C)C)C(O)C1 (centres undefined)
active: OR2W3
inactive: OR2W1 [1] | OR2W3 (Homo sapiens) | OR2W5P (Homo sapiens) | OR2Y1 | OR2Z1 (Homo sapiens) | OR3A1 (Homo sapiens) | OR3A2 (Homo sapiens)

CC1=NC(C)SC1C (centres undefined)
inactive: OR2W1 [1] | OR2W3 | OR2W5P (Homo sapiens) | OR2Y1 | OR3A1 (Homo sapiens) | OR3A2 (Homo sapiens)
active: OR2Z1 (Homo sapiens)

CCCCCC(=O)O
active: OR2W3 (Homo sapiens)
inactive: OR2W1 [1] | OR2W3 | OR2W5P (Homo sapiens) | OR2Y1 | OR2Z1 (Homo sapiens) | OR3A1 (Homo sapiens) | OR3A2 (Homo sapiens)

CC1=CCC(C(C)(C)O)CC1 (centres undefined)
active: OR2W1 [1]
inactive: OR2W1 [2] | OR2W3 | OR2W5P (Homo sapiens) | OR2Y1 | OR2Z1 (Homo sapiens) | OR3A1 (Homo sapiens) | OR3A2 (Homo sapiens)

CCCCCCCCCCC=O
inactive: OR2W1 [1] | OR2W3 (Homo sapiens) | OR2W3 | OR2W5P (Homo sapiens) | OR2Y1 | OR2Z1 (Homo sapiens) | OR3A1 (Homo sapiens) | OR3A2 (Homo sapiens)

CC12CCC(CC1)C(C)(C)O2
inactive: OR2W3 | OR2W5P (Homo sapiens) | OR2Y1 | OR2Z1 (Homo sapiens) | OR3A1 (Homo sapiens) | OR3A2 (Homo sapiens)
active: OR2W1 [1] | OR2W1 [2]

CCC=CCCO
active: OR2W1 [1] | OR2W1 [2]
inactive: OR2W3 | OR2W5P (Homo sapiens) | OR2Y1 | OR2Z1 (Homo sapiens) | OR3A1 (Homo sapiens) | OR3A2 (Homo sapiens)

CC(C)CC(=O)O
inactive: OR2W1 [1] | OR2W3 (Homo sapiens) | OR2W3 | OR2W5P (Homo sapiens) | OR2Y1 | OR2Z1 (Homo sapiens) | OR3A1 (Homo sapiens) | OR3A2 (Homo sapiens)

COC(=O)c1ccccc1
active: OR2W1 [1] | OR2Y1
inactive: OR2W1 [2] | OR2W3 | OR2W5P (Homo sapiens) | OR2Z1 (Homo sapiens) | OR3A1 (Homo sapiens) | OR3A2 (Homo sapiens)

2 entries picked at random from the list so far:
COC(=O)c1ccccc1
active: OR2W1 [1] | OR2Y1
inactive: OR2W1 [2] | OR2W3 | OR2W5P (Homo sapiens) | OR2Z1 (Homo sapiens) | OR3A1 (Homo sapiens) | OR3A2 (Homo sapiens)

CCC=CCCO
active: OR2W1 [1] | OR2W1 [2]
inactive: OR2W3 | OR2W5P (Homo sapiens) | OR2Y1 | OR2Z1 (Homo sapiens) | OR3A1 (Homo sapiens) | OR3A2 (Homo sapiens)
